Data: patent publication US9932522B2, “Electrochromic compound, electrochromic composition, display element, and dimming element” (Ricoh Company, Ltd., priority 2014, dated 2018)

Assay: Coloring-discharging comparison test of display electrode with electrochromic display layer
Details: compound adsorbed on titanium oxide particle film; for Discharged state (color): before applying the voltage; for Colored state (color): voltage of −1.5 V applied

Row | SMILES | Discharged state (color) | Colored state (color)
1 | O=P(O)(O)CCCCCCCC[n+]1ccc(-c2ccc(-c3ccccc3)cc2)cc1.[Br-] [Comparative Compound 3, reference compound] | colorless | colorless
2 | O=P(O)(O)CCCCCCCC[n+]1ccc(-c2ccc(-c3cccs3)cc2)cc1.[Br-] [Compound 1b] | pale yellow | yellow
3 | O=P(O)(O)CCCCCCCC[n+]1ccc(-c2ccc(-c3cncs3)cc2)cc1.[Br-] [Compound 2b] | colorless | yellow
4 | O=P(O)(O)CCCCCCCC[n+]1ccc(-c2ccc(-c3nccs3)cc2)cc1.[Br-] [Compound 3b] | colorless | yellow
5 | COc1nc(OC)nc(-c2ccc(-c3cc[n+](CCCCCCCCP(=O)(O)O)cc3)cc2)n1.[Br-] [Compound 4b] | colorless | yellow
6 | O=P(O)(O)CCCCCCCC[n+]1ccc(-c2ccc(-c3nc(-c4ccccc4)nc(-c4ccccc4)n3)cc2)cc1.[Br-] [Compound 5b] | colorless | green
7 | O=P(O)(O)CCCCCCCC[n+]1ccc(-c2ccc(-c3ncccn3)cc2)cc1.[Br-] [Compound 6b] | colorless | yellow
8 | O=P(O)(O)CCCCCCCC[n+]1cccc(-c2ccc(-c3cccs3)cc2)c1 [Compound 12b] | colorless | yellow
